Positions of bridges follow the written chain, without caps; N, C: chain ends.
What was measured:
[1] = general procedure: Fmoc solid-phase peptide synthesis; conditions: whole synthesis, one disulfide bridge, sequence written open
[2] = Fmoc solid-phase peptide synthesis; conditions: whole synthesis

Substance | difficulty met [1] | difficulty met [2]
Ac-GDRRACSRDWSGALVWCAGHEPGPEGGGK-NH2 (N-acetyl, C-amide; Fc region binding polypeptide) | is also difficult, primarily due to the N-terminal Arg-Arg positions giving the possibility of deletion sequences | 
Ac-GDDHMCVYTTWGELIWCDNHEPGPEGGGK-NH2 (disulfide 6-17; SMILES CC[C@H](C)[C@@H]1NC(=O)[C@H](CC(C)C)NC(=O)[C@H](CCC(=O)O)NC(=O)CNC(=O)[C@H](Cc2c[nH]c3ccccc23)NC(=O)[C@H]([C@@H](C)O)NC(=O)[C@H]([C@@H](C)O)NC(=O)[C@H](Cc2ccc(O)cc2)NC(=O)[C@H](C(C)C)NC(=O)[C@@H](NC(=O)[C@H](CCSC)NC(=O)[C@H](Cc2c[nH]cn2)NC(=O)[C@H](CC(=O)O)NC(=O)[C@H](CC(=O)O)NC(=O)CNC(C)=O)CSSC[C@@H](C(=O)N[C@@H](CC(=O)O)C(=O)N[C@@H](CC(N)=O)C(=O)N[C@@H](Cc2c[nH]cn2)C(=O)N[C@@H](CCC(=O)O)C(=O)N2CCC[C@H]2C(=O)NCC(=O)N2CCC[C@H]2C(=O)N[C@@H](CCC(=O)O)C(=O)NCC(=O)NCC(=O)NCC(=O)N[C@@H](CCCCN)C(N)=O)NC(=O)[C@H](Cc2c[nH]c3ccccc23)NC1=O) |  | synthesis and folding are problematic, primarily due to beta rearrangement at the Asp-Asp-His position
